Results are given in words; binding and its absence hold for the method and conditions named. Binding seen in cells or lysates may run through a third protein. Some results given as binding are weak or reduced against the parent protein; the word gives no strength.
target: G3BP1 (endogenous) (human (endogenous in PC-3)) (UniProt Q13283); test: co-IP; pulldown of endogenous G3BP1 from PC-3 cells with anti-G3BP1 antibodies

Sequences of proteins named here, by UniProt entry; tags and fusion partners are left off.
UniProt Q04637: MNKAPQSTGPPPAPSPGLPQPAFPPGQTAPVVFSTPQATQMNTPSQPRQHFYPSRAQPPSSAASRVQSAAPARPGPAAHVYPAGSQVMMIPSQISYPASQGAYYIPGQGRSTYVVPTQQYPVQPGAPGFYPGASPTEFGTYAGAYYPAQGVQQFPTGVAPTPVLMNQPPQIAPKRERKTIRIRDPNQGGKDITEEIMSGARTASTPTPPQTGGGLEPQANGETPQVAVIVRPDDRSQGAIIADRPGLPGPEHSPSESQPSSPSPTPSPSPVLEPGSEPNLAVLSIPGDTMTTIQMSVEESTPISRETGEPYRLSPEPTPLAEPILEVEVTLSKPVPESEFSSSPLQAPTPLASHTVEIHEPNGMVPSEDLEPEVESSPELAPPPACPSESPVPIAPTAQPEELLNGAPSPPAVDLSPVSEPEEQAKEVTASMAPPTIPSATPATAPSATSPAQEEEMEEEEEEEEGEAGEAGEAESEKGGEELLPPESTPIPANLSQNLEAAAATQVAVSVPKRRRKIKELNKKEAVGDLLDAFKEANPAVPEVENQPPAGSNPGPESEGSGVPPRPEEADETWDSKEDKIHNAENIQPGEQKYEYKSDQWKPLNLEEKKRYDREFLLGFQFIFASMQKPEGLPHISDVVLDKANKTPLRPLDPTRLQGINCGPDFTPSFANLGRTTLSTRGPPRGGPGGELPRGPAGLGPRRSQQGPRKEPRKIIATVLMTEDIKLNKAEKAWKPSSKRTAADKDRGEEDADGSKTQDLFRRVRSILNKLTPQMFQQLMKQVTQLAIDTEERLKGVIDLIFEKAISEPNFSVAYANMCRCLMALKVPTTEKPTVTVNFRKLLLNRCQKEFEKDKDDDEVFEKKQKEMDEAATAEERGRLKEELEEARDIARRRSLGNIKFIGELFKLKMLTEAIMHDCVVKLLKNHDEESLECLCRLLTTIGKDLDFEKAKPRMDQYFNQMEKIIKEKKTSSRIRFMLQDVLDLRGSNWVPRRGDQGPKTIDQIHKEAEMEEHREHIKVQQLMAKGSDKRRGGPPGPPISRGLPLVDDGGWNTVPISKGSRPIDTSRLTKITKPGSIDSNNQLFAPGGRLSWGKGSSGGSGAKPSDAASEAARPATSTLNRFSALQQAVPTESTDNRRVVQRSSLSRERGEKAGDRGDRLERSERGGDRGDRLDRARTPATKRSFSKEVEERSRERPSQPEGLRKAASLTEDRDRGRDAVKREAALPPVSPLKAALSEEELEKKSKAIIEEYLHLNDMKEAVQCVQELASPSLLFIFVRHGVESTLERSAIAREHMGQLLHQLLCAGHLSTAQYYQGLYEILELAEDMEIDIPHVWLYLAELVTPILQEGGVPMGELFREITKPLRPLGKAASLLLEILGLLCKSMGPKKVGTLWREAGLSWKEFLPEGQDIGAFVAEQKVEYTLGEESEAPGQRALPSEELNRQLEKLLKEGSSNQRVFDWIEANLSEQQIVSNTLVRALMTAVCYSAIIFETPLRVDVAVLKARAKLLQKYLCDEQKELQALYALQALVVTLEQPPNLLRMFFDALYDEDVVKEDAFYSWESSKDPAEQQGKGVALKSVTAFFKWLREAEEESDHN
UniProt P67809: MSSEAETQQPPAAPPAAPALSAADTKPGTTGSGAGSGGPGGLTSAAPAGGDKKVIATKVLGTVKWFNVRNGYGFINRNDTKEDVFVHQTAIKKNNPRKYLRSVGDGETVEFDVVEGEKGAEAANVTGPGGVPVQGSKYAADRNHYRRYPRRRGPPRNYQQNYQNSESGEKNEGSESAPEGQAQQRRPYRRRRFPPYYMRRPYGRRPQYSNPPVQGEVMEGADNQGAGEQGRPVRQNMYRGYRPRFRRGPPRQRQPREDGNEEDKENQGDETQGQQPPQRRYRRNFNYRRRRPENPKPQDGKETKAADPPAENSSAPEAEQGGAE

Row | binding | Molecule
1 | binds | eIF4G1 (from UniProt Q04637 1-1599)
2 | binds | YB-1 (from UniProt P67809 1-324) (other; other documents disagree on this pair)
3 | binds | G3BP2 (protein, UniProt Q9UN86 1-482) MVMEKPSPLLVGREFVRQYYTLLNKAPEYLHRFYGRNSSYVHGGVDASGKPQEAVYGQNDIHHKVLSLNFSECHTKIRHVDAHATLSDGVVVQVMGLLSNSGQPERKFMQTFVLAPEGSVPNKFYVHNDMFRYEDEVFGDSEPELDEESEDEVEEEQEERQPSPEPVQENANSGYYEAHPVTNGIEEPLEESSHEPEPEPESETKTEELKPQVEEKNLEELEEKSTTPPPAEPVSLPQEPPKAFSWASVTSKNLPPSGTVSSSGIPPHVKAPVSQPRVEAKPEVQSQPPRVREQRPRERPGFPPRGPRPGRGDMEQNDSDNRRIIRYPDSHQLFVGNLPHDIDENELKEFFMSFGNVVELRINTKGVGGKLPNFGFVVFDDSEPVQRILIAKPIMFRGEVRLNVEEKKTRAARERETRGGGDDRRDIRRNDRGPGGPRGIVGGGMMRDRDGRGPPPRGGMAQKLGSGRGTGQMEGRFTGQRR
4 | binds | TIA-1 (protein, UniProt P31483 1-386) MEDEMPKTLYVGNLSRDVTEALILQLFSQIGPCKNCKMIMDTAGNDPYCFVEFHEHRHAAAALAAMNGRKIMGKEVKVNWATTPSSQKKDTSSSTVVSTQRSQDHFHVFVGDLSPEITTEDIKAAFAPFGRISDARVVKDMATGKSKGYGFVSFFNKWDAENAIQQMGGQWLGGRQIRTNWATRKPPAPKSTYESNTKQLSYDEVVNQSSPSNCTVYCGGVTSGLTEQLMRQTFSPFGQIMEIRVFPDKGYSFVRFNSHESAAHAIVSVNGTTIEGHVVKCYWGKETLDMINPVQQQNQIGYPQPYGQWGQWYGNAQQIGQYMPNGWQVPAYGMYGQAWNQQGFNQTQSSAPWMGPNYGVQPPQGQNGSMLPNQPSGYRVAGYETQ
